Some entries share one result that the patent states for a list of compounds.
Test: Ozonation of contaminated soil slurry in 5-L reaction flask (Examples 1, 2 and 7)
Type: physicochemical
Conditions: Example 2, phthalate-contaminated soil slurry

Work on `CCCCC(CC)COC(=O)c1ccccc1C(=O)OCC(CC)CCCC` (stereo not shown) [bis(2-ethylhexyl)phthalate] yielded an incubation phase of 24 to 48 h.

— patent publication US6403034B1, “Method of reducing the concentration of recalcitrant organic contamination in a soil matrix” (priority 1995, dated 2002)
